# Experimental data reported in the supplement of paper PMC10735217.
# The other results are listed elsewhere or left out. Repeats in this data set agree poorly, so a single value says little.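 In a drug-repurposing library screen, luminescence reads luciferase driven by eight TEAD-binding elements, stably integrated into human kidney-derived cells. Compounds scoring over five robust Z scores above the plate mean are called hits.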
# Tested on: HEK293A TEAD-LUC reporter
# Experiment: TEAD-luciferase reporter activity (YAP activation), robust Z score vs plate; higher = stronger YAP/TEAD activation
# Settings: 24 h
SMILES,TEAD-luciferase reporter activity (compound concentration: 200 nM),TEAD-luciferase reporter activity (compound concentration: 2 uM),TEAD-luciferase reporter activity (compound concentration: 10 uM)
O=C(c1cc2ccccc2o1)N1CCN(Cc2ccccc2)CC1,inactive: -1.57,inactive: 1.29,inactive: 0.421
Nc1c(NC/C=C\COc2cc(CN3CCCCC3)ccn2)c(=O)c1=O,inactive: -0.997,inactive: 0.666,inactive: 1.26
COc1ccccc1N1CCN(CCc2oc(=O)[nH]c2-c2ccc(F)cc2)CC1 [zoloperone],inactive: 2.45,inactive: -1.03,inactive: -1.18
NC(N)=NCCC[C@@H]1NC(=O)[C@@H](Cc2ccc(O)cc2)NC(=O)CS(=O)C[C@@H](C(=O)O)NC(=O)[C@H](CC(=O)O)NC(=O)CNC1=O (some centres not stated),inactive: 4.09,inactive: 0.51,inactive: -0.902
CCN(CC)C(=O)CSc1ccc(Cl)nn1,inactive: -1.72,inactive: 1.7,inactive: 0.601
CN1C(=O)c2ccncc2/C(=C/CCCCC(=O)O)c2ccccc21,inactive: -3.28,inactive: 0.983,inactive: -0.827
FC(F)(F)Oc1ccc(Nc2ccc3cccc(Cl)c3n2)cc1,inactive: -0.0414,inactive: -1.26,active: 6.03
Cc1nnc(SCC2=C(C(=O)O)N3C(=O)C(NC(=O)Cc4ccccc4)C3SC2)s1 (configuration not stated),inactive: -2.24,inactive: 1.05,inactive: 0.396
CCCCn1c(=O)c2c(ncn2CC(C)=O)n(CCCC)c1=O [Denbufylline],inactive: -0.769,inactive: -1.12,inactive: -1.24
"C/C=C1\NC(=O)[C@H]2CSSCC/C=C/[C@H](CC(=O)N[C@H](C(C)C)C(=O)N2)OC(=O)[C@H](C(C)C)NC1=O [Romidepsin (FK228 ,depsipeptide)]",active: 30.8,,active: 33.3
C/C=C1\NC(=O)[C@H]2CSSCC/C=C/[C@H](CC(=O)N[C@H](C(C)C)C(=O)N2)OC(=O)[C@H](C(C)C)NC1=O [romidepsin],,active: 12.3,
Clc1ccc2c(c1)C1=NCCN1c1c(-c3noc(C4CC4)n3)ncn1-2,inactive: -2.04,inactive: -1.27,inactive: 4.27
C/C=C/C(=O)N(CC)c1ccccc1C [N-Ethyl-o-crotonotoluidide483-63-6],inactive: 0.401,,inactive: -2.31
C/C=C/C(=O)N(CC)c1ccccc1C,,inactive: 0.805,
COc1ccc2c(c1)c(CC(=O)SCc1cccnc1)c(C)n2C(=O)c1ccc(Cl)cc1 [pimetacin],inactive: -0.718,inactive: -0.948,inactive: -0.783
C[C@@H]1C[C@H]2[C@@H]3C[C@H](F)C4=CC(=O)C(Cl)=C[C@]4(C)[C@@]3(F)[C@@H](O)C[C@]2(C)[C@@]1(O)C(=O)CO [halometasone],,inactive: 1.23,
C[C@@H]1C[C@H]2[C@@H]3C[C@H](F)C4=CC(=O)C(Cl)=C[C@]4(C)[C@@]3(F)[C@@H](O)C[C@]2(C)[C@@]1(O)C(=O)CO,inactive: -0.785,,inactive: -0.0606
COc1ccc(/C=C/C(=O)NC[C@@H]2CN(c3ccc(N4CCOCC4)c(F)c3)C(=O)O2)cc1,inactive: 0.311,inactive: -0.653,inactive: -1.05

SMILES,TEAD-luciferase reporter activity (compound concentration: 200 nM),TEAD-luciferase reporter activity (compound concentration: 2 uM),TEAD-luciferase reporter activity (compound concentration: 10 uM)
CCCCCCCCCC(=O)O [Capric acid],inactive: -0.209,inactive: 0.694,inactive: -0.269
CN(C)CCCNCC1CCCCC1,inactive: 0.651,inactive: -1.21,inactive: -0.84
O=C(NCCCl)Sc1ncnc2[nH]cnc12 [cloturin],,inactive: 1.37,
O=C(NCCCl)Sc1ncnc2[nH]cnc12,inactive: -0.588,,inactive: -0.649
Cc1cc2c(cc1C(F)(F)F)N(C(=O)Nc1ccc(OCc3ccccn3)nc1)CC2,inactive: 0.488,inactive: 0.744,inactive: 1.65
CC1CS(=O)(=O)CCN1/N=C/c1ccc([N+](=O)[O-])o1 (configuration not stated) [Nifurtimox],inactive: -1.71,,inactive: -1.08
CC1CS(=O)(=O)CCN1/N=C/c1ccc([N+](=O)[O-])o1 (configuration not stated) [nifurtimox],,inactive: -1.48,
CC[C@@H](Cc1ccc(OC)c(C(=O)NCc2ccc(Oc3ccc(F)cc3)cc2)c1)C(=O)O,inactive: -0.755,inactive: -0.666,inactive: -0.0687
COc1ccc(-c2cc3cc(OC(C)=O)ccc3n2Cc2ccccc2)cc1,inactive: -1.43,inactive: -0.405,inactive: 0.973
Fc1ccc(-c2c3cccc(C(F)(F)F)c3nn2Cc2ccc(F)cc2Cl)cc1,inactive: -1.62,inactive: 0.315,inactive: 1.54
"CC(C(=O)O)c1ccc(C(=O)c2cccs2)cc1 (configuration not stated) [suprofen, Cusi]",inactive: -0.399,active: 5.44,inactive: 0.228
C[C@@H]1CN(C(=O)[C@@H]2CN(C(C)(C)C)C[C@H]2c2ccc(F)cc2F)C[C@H](C)[C@@]1(O)c1ccccc1,inactive: -0.862,inactive: 0.296,inactive: 0.581
O=C(CN(CCC1CCCC1)C(=O)N1CCC[C@H]1C(=O)Nc1nccs1)NO,inactive: -1.37,inactive: 0.0842,inactive: -0.267
CCc1ccc(Nc2c(F)c(F)cc(F)c2F)c(CC(=O)O)c1 [Robenacoxib],inactive: -0.449,inactive: 2.22,inactive: 1.71
CNC(=O)[C@H](C/C=C/c1ccc(N(C)c2ncccn2)cc1)NC(=O)c1ccccc1Cl,inactive: -1.49,inactive: -0.425,inactive: 0.229
COc1cccc(CN2CCCC23Cc2ccccc2CNC3=O)c1 (configuration not stated),inactive: 0.163,,inactive: -0.258
CC(C)[C@H](O)C(=O)N[C@@H](C)C(=O)NC1C(=O)N(C)c2ccccc2-c2ccccc21 (some centres not stated),inactive: -0.985,inactive: -1.17,inactive: 0.372
CC(C)[C@H](NC(=O)C(Cc1ccccc1)C[C@H](O)[C@H](Cc1ccccc1)NC(=O)OC(C)(C)C)C(=O)N[C@@H](Cc1ccccc1)C(=O)N1CCOCC1 (some centres not stated),inactive: -1.26,inactive: -0.846,inactive: -0.751

# Some of the entries so far, with bars between the fields:
SMILES | TEAD-luciferase reporter activity (compound concentration: 200 nM) | TEAD-luciferase reporter activity (compound concentration: 2 uM) | TEAD-luciferase reporter activity (compound concentration: 10 uM)
CCc1ccc(Nc2c(F)c(F)cc(F)c2F)c(CC(=O)O)c1 [Robenacoxib] | inactive: -0.449 | inactive: 2.22 | inactive: 1.71
CNC(=O)[C@H](C/C=C/c1ccc(N(C)c2ncccn2)cc1)NC(=O)c1ccccc1Cl | inactive: -1.49 | inactive: -0.425 | inactive: 0.229
